Experimental findings from PMC4223072 are described below.

Chains of the proteins cited; added tags and fusions are not shown. Lines headed by an entry give the natural chain unless they say otherwise; changes in a name come on top. Residues count along the entry.
UniProt O60603: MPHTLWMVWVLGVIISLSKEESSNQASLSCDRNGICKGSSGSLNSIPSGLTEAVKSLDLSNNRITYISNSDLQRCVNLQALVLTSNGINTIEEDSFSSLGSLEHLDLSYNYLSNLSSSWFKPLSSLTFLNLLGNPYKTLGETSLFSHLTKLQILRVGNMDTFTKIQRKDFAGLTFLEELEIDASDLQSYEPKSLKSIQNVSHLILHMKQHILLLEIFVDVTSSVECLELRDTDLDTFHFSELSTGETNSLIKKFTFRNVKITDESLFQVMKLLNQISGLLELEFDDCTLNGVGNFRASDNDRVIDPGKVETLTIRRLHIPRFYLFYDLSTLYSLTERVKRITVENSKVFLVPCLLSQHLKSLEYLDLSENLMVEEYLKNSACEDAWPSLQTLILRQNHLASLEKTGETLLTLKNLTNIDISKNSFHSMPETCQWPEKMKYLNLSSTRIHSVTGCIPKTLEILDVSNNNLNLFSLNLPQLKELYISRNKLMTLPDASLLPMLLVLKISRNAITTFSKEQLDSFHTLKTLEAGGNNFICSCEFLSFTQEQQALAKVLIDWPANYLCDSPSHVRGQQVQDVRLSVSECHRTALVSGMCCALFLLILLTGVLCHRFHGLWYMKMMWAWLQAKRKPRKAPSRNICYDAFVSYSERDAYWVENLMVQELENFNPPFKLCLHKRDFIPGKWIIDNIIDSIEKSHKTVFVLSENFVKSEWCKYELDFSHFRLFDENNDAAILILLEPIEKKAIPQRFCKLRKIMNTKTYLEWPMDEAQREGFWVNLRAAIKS
UniProt P06756: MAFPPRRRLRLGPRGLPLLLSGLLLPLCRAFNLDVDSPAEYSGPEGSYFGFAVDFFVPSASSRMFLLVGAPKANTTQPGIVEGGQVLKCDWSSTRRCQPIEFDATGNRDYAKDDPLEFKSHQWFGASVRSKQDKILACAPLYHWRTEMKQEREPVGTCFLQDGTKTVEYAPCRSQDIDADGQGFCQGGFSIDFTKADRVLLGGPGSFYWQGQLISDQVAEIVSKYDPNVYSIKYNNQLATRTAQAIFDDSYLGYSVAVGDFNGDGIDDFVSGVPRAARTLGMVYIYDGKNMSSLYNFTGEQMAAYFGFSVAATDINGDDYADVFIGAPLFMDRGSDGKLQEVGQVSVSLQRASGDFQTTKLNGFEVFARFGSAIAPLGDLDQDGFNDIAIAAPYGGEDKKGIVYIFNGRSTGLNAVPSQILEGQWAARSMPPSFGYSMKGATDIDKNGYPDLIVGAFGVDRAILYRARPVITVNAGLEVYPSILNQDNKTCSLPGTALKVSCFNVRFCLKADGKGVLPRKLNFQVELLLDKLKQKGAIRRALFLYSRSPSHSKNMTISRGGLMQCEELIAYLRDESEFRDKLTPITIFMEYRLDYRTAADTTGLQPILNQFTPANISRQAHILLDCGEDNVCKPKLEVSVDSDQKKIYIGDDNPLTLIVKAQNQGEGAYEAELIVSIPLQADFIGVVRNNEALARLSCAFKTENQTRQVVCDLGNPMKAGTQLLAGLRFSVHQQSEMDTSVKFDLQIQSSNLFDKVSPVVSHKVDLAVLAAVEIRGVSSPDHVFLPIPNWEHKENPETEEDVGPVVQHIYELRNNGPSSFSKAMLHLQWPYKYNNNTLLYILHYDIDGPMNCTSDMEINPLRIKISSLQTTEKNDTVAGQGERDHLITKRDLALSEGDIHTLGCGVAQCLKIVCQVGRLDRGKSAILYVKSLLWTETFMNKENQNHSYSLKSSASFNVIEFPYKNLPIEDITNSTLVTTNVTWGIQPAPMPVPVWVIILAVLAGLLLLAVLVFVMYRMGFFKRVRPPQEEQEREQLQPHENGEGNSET
UniProt Q69091, residues 26-394: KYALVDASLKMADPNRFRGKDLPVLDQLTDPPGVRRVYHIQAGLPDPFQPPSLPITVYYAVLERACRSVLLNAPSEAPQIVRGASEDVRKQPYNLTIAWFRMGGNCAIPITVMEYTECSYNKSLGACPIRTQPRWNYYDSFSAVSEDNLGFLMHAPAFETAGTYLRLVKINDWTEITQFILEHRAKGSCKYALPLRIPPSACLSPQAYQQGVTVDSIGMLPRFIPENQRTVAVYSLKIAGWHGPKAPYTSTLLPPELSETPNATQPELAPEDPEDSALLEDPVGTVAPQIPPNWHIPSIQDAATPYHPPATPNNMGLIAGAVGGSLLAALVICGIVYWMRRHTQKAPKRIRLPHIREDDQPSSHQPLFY
UniProt Q99836: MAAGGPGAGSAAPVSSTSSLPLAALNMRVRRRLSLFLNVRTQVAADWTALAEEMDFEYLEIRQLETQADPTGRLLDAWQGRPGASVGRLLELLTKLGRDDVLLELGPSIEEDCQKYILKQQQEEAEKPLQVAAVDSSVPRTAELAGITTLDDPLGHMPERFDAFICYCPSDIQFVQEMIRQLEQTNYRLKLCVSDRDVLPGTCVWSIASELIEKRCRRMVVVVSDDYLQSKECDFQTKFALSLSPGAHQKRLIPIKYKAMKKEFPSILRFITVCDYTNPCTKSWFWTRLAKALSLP

For assay [1], the target named is TLR2-Flag (UniProt O60603). The assay is described as follows: co-IP; TLR2-Flag immunoprecipitated with anti-Flag M2 MAb, complexes harvested with Protein G-Sepharose, from lysates (PBS, 1% DOC, 1% Igepal) of transfected 293T or sh-β3 293T cells; WB with PAb 1932 to β3-integrin or PAb to gH/gL.
The target of assay [2] is TLR2-Flag (UniProt O60603). Briefly: co-IP; 293T cells simultaneously transfected with TLR2-Flag, αv+β3-integrin, gH, gL (controls devoid of TLR2); TLR2-Flag immunoprecipitated with anti-Flag MAb; WB with PAb to gH/gL and PAb to β3-integrin.
The target in assay [3] is strep-tagged αv-integrin with wt β3-integrin (αv_(strep)wt-β3-integrin) (UniProt P06756). The assay is described as follows: pull-down; αvst harvested with Strep-Tactin Sepharose (the paper's 'IP: αvst') from sh-β3 293T cells transfected with αvst, β3wt or β3_(Y747-759F), MYD88-HA, plus or minus TLR2-Flag, exposed to R7910 for 10, 20, 30 min; lysis in EA1 buffer (50 mM HEPES, 250 mM NaCl, 0.5% Igepal, pH 8); WB with MAb to HA.

Assay [4] deals with strep-tagged αv-integrin with β3-integrin_(Y747-Y759) mutant (αv_(strep)β3-integrin_(Y747-Y759)) (UniProt P06756). The assay is described as above.

No constants are given. Whether binding was seen depends on the method and setting. Binding seen in cells or lysates may run through a third protein. Some binding calls cover weakened binding; strength is not graded here.

As to “αvβ3-integrin (αv + β3wt) (from UniProt P06756 31-1048; P05106 27-788) (complex)”, the binding result in assay [1] and in assay [2] was “binds” throughout.
“HSV-1 glycoprotein gD (from UniProt Q69091 26-394)”: the binding result in assay [2] was “no binding”.
Take “αvβ3-integrin with β3_(Y747-759F) (αv + β3_(Y747-759F)) (from UniProt P06756 31-1048; P05106 27-788) (complex)”: in assay [1], the binding result is given as “binds”.
For “HSV-1 glycoprotein gH/gL heterodimer (from UniProt P06477 19-838; P10185 20-224) (complex)”, the binding entry in assay [1] and in assay [2] was “binds” in each case.
As for “hemagglutin (HA)-tagged MYD88 (MYD88-HA) (from UniProt Q99836 1-296)”, the binding result in assay [3] is on record as “binds”; in assay [4] it was “no binding”.
